Laboratory results reported in the supplement of paper PMC3334620.
The full ranking holds about 33,000 sequences; the median of “E-score (-0.5 to 0.5)” is about -0.0059, and the highest 2% start at about 0.26. The list shows a part of the results.

Target: T1, Cin5 (UniProt P40917)
T1 sequence: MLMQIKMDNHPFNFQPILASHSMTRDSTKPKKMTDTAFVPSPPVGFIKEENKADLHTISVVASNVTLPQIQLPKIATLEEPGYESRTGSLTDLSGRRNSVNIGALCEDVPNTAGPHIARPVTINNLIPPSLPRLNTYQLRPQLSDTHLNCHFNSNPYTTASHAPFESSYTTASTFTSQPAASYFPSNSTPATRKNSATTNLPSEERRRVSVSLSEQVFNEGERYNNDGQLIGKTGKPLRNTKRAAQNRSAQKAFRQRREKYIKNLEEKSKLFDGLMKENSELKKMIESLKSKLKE
Assay: PBM E-score (8-mer binding enrichment) (E-score (-0.5 to 0.5)); higher = stronger / more preferred TF binding
Conditions: protein concentration: 100 nM; construct: GST-full length
Procedure, shortened: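 For each ungapped eight-base word taken together with its reverse complement, the Universal PBM Analysis Suite assigned an E-score. Binding data came from GST-tagged yeast transcription factors, applied at about 100-200 nM, on universal all-10-mer Agilent arrays made double-stranded by primer extension. Fluorescent anti-GST marked bound protein, and scans were normalised with masliner.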

In order of falling “PBM E-score” value:
1. GATAAGCA  0.275
2. ATGATTGC  0.234
3. CGTTTATA  0.23
4. CGATACTA  0.219
5. AAAATAAT  0.212
6. ATAACTAG  0.2
7. AGAAGATA  0.188
8. AGATTTCC  0.185
9. AAGGCAAA  0.185
10. TCGCGAAA  0.151
11. CTCGATAA  0.149
12. CAGTATGA  0.149
13. TGAAATAA  0.138
14. AGTAGAAT  0.137
15. CCAATAAA  0.134
16. ACTAATCT  0.128
17. AGTAGCGA  0.108
18. GCCGACTA  0.104
19. ATGACCTA  0.0938
20. CATCCGCC  0.0814
21. GATGGACA  0.0812
22. CCAGGTTA  0.0733
23. CCTCGAGG  0.0694
24. ACACGATC  0.0692
25. CTTCCGGC  0.069
26. GAATCGGC  0.0637
27. CACTATCG  0.0597
28. AAAAGAAC  0.0584
29. TACGAGAA  0.0576
30. ACGTTCTA  0.0493
31. ACCGCTTG  0.0485
32. ACACCTCA  0.0284
33. CACCACGA  0.0261
34. ACAAGTAA  0.0192
35. GCACAGAC  0.0155
36. ATGTGACG  0.0123
37. CATCTGAG  0.00866
38. CGAAGGTA  0.00785
39. ACTCTCGG  0.0048
40. CTTTATAC  0.0035
41. GAATACCC  0.00321
42. CACCCATA  0.00193
43. CAACGGGA  -0.00044
44. ACATTTGG  -0.0058
45. ACGGCATG  -0.0125
46. GACGCACA  -0.0151
47. ATGATTCA  -0.0169
48. CCATTAAA  -0.0244
49. GGAAGCTA  -0.0268
50. AAGTTCGT  -0.0372
51. CCATGACG  -0.0398
52. CTAAAATC  -0.0399
53. AGTCCGGA  -0.0408
54. GTGGTACA  -0.0413
55. ACGTGACC  -0.0447
56. CTATGATC  -0.0495
57. GAGCTGCA  -0.0506
58. AGACACAG  -0.0513
59. AACAGGAG  -0.0535
60. GCTTTTAA  -0.0582
61. CGCGTGAC  -0.0643
62. GCCGGAGA  -0.0706
63. CCGTCATC  -0.075
64. AGATTAGA  -0.0761
65. ACGCAGCA  -0.0778
66. AGGGGTGC  -0.088
67. ACCCTGAG  -0.0935
68. CTGCGCTA  -0.0995
69. CGACATCC  -0.101
70. GACCTGTA  -0.102
71. GTTCAAAA  -0.105
72. CGCGCCCC  -0.107
73. TGATGGCA  -0.112
74. CGCCAGAC  -0.134
75. CGGTATGC  -0.138
76. GTAGCTGA  -0.14
77. AGACACAT  -0.147
78. CAAAGACC  -0.15
79. GTGAGAGA  -0.15
80. ATAAAGGA  -0.157
81. GCCTCCAA  -0.162
82. CTGGTTGA  -0.165
83. ACCGGCTC  -0.167
84. TCCGAAAA  -0.17
85. CTGGTCTA  -0.172
86. AGCTTCGG  -0.187
87. CACTGGCC  -0.2
88. AGGCTGGA  -0.204
89. CAGACTCC  -0.211
90. AGGCACAC  -0.217
91. CTCCGCAA  -0.233
92. AGACGAGC  -0.273
93. CCGCATCG  -0.279
94. CCCCGTCG  -0.31
